From article PMC12276184
No constants are given. Whether binding was seen depends on the method and setting. Binding seen in cells or lysates may run through a third protein. Some entries that bind do so weakly or less than the wild type. Tags and fused reporters may be left off the sequences shown.

Biological target: T1, FLAG tagged YTHDF2 overexpressed in HEK293T cells (human) (UniProt Q9Y5A9)
T1 sequence: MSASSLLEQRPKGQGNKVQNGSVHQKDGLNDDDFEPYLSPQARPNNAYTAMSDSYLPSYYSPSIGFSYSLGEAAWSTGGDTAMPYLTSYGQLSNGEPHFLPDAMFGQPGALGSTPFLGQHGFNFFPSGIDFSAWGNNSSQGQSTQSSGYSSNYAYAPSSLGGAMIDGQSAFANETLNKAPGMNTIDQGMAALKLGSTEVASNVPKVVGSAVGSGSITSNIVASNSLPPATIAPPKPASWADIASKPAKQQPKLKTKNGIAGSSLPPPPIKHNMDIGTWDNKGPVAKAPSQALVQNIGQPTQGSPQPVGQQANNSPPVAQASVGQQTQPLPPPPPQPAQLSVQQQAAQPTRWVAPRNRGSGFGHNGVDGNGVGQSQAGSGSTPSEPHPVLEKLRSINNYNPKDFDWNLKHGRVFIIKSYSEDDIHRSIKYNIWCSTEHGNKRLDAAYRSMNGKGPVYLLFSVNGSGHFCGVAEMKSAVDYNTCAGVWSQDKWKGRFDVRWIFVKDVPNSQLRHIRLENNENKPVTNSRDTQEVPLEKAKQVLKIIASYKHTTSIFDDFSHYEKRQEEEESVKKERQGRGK
Assay: co-IP; reciprocal co-immunoprecipitation from HEK293T cells overexpressing PLEK2 and YTHDF2; immunoblotting

B1: HA tagged PLEK2 overexpressed in HEK293T cells (protein, UniProt Q9NYT0 1-353)
chain: MEDGVLKEGFLVKRGHIVHNWKARWFILRQNTLVYYKLEGGRRVTPPKGRILLDGCTITCPCLEYENRPLLIKLKTQTSTEYFLEACSREERDAWAFEITGAIHAGQPGKVQQLHSLRNSFKLPPHISLHRIVDKMHDSNTGIRSSPNMEQGSTYKKTFLGSSLVDWLISNSFTASRLEAVTLASMLMEENFLRPVGVRSMGAIRSGDLAEQFLDDSTALYTFAESYKKKISPKEEISLSTVELSGTVVKQGYLAKQGHKRKNWKVRRFVLRKDPAFLHYYDPSKEENRPVGGFSLRGSLVSALEDNGVPTGVKGNVQGNLFKVITKDDTHYYIQASSKAERAEWIEAIKKLT
binding: binds
